Source: publication PMC7210984

Biological target: T1, hSOX9 (human) (UniProt P48436)
T1 sequence (looked up, limits assumed): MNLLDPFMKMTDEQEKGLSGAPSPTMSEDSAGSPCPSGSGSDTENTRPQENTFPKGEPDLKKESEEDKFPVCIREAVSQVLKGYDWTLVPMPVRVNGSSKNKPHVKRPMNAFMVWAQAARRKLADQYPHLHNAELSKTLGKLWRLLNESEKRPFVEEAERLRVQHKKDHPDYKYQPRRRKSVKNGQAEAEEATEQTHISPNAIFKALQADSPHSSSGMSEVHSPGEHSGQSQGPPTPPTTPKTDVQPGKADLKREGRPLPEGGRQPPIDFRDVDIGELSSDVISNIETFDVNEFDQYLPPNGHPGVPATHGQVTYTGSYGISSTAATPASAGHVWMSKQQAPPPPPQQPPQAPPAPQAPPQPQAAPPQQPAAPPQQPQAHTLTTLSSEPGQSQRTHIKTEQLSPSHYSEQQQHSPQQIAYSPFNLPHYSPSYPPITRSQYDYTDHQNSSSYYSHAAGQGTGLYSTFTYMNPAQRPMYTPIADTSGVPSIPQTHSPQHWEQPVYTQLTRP
Experiment: EMSA
Settings: hSOX9 HEK293 nuclear extract, EMSA: 13 fmol labeled duplex with nuclear extract, 20 min at 25 °C, 4% acrylamide 0.5x TBE gel, binding buffer, salt and pH not given, protein in a lysate after overexpression, label: 32P 5' end (T4 PNK)

Row | Sequence | binding result | binding result (additional nonspecific bands on this probe)
1 | GGGATGAAAAGGCTCTTCATGTCTGCA (double strand) [mSnorc SRY5' probe] | binds | –
2 | GGGATGCCGAGGCTCTTCATGTCTGCA (double strand) [mSnorc SRY5'mut probe] | no binding | –
3 | TCTGCACAAAGGCCGTCTGTGAGCATG (double strand) [mSnorc SRY3' probe] | – | binds
4 | TCTGCACGCGGGCCGTCTGTGAGCATG (double strand) [mSnorc SRY3'mut probe] | no binding | –

The exact form of at least one protein or probe is not confirmed. Results from cells or extracts need not show a direct contact. Negatives hold for the conditions tested. Protein sequences can lack the tags named with them.
